Legend:
Assay in all cases: minimum inhibitory concentration
linezolid = compound: CC(=O)NC[C@H]1CN(c2ccc(N3CCOCC3)c(F)c2)C(=O)O1 [linezolid]
clindamycin = compound: CCC[C@@H]1C[C@@H](C(=O)N[C@@H]([C@H]2O[C@H](SC)[C@H](O)[C@@H](O)[C@H]2O)[C@H](C)Cl)N(C)C1 [clindamycin]
fidaxomicin = compound: CCc1c(Cl)c(O)c(Cl)c(O)c1C(=O)O[C@H]1[C@H](O)[C@H](OC)[C@H](OC/C2=C\C=C\C[C@H](O)/C(C)=C/[C@H](CC)[C@@H](O[C@@H]3OC(C)(C)[C@@H](OC(=O)C(C)C)[C@H](O)[C@@H]3O)/C(C)=C/C(C)=C/C[C@@H]([C@@H](C)O)OC2=O)O[C@@H]1C [fidaxomicin]
tigecycline = compound: CN(C)c1cc(NC(=O)CNC(C)(C)C)c(O)c2c1C[C@H]1C[C@H]3[C@H](N(C)C)C(O)=C(C(N)=O)C(=O)[C@@]3(O)C(O)=C1C2=O [tigecycline]
vancomycin = compound: CN[C@H](CC(C)C)C(=O)N[C@H]1C(=O)N[C@@H](CC(N)=O)C(=O)N[C@H]2C(=O)N[C@H]3C(=O)N[C@H](C(=O)N[C@H](C(=O)O)c4cc(O)cc(O)c4-c4cc3ccc4O)[C@H](O)c3ccc(c(Cl)c3)Oc3cc2cc(c3O[C@@H]2O[C@H](CO)[C@@H](O)[C@H](O)[C@H]2O[C@H]2C[C@](C)(N)[C@H](O)[C@H](C)O2)Oc2ccc(cc2Cl)[C@H]1O [vancomycin]
rifampicin = compound: CO[C@H]1/C=C/O[C@@]2(C)Oc3c(C)c(O)c4c(O)c(c(/C=N/N5CCN(C)CC5)c(O)c4c3C2=O)NC(=O)/C(C)=C\C=C\[C@H](C)[C@H](O)[C@@H](C)[C@@H](O)[C@@H](C)[C@H](OC(C)=O)[C@@H]1C [rifampicin]
imipenem = compound: C[C@@H](O)[C@H]1C(=O)N2C(C(=O)O)=C(SCCNC=N)C[C@H]12 [imipenem]
meropenem = compound: C[C@@H](O)[C@H]1C(=O)N2C(C(=O)O)=C(S[C@@H]3CN[C@H](C(=O)N(C)C)C3)[C@H](C)[C@H]12 [meropenem]
metronidazole = compound: Cc1ncc([N+](=O)[O-])n1CCO [metronidazole]

| Test System | minimum inhibitory concentration (linezolid) | minimum inhibitory concentration (clindamycin) | minimum inhibitory concentration (fidaxomicin) | minimum inhibitory concentration (tigecycline) | minimum inhibitory concentration (vancomycin) | minimum inhibitory concentration (rifampicin) | minimum inhibitory concentration (imipenem) | minimum inhibitory concentration (meropenem) | minimum inhibitory concentration (metronidazole) |
| --- | --- | --- | --- | --- | --- | --- | --- | --- | --- |
| Clostridioides difficile PCR ribotype 085 isolate #195 (European region: East, country: Romania, isolate source: Human, ribotype: 085) | 2 µg/mL | > 128 µg/mL | 0.03 µg/mL | 0.06 µg/mL | 0.5 µg/mL | > 32 µg/mL | 8 µg/mL | 4 µg/mL | 0.5 µg/mL |
| Clostridioides difficile PCR ribotype 087 isolate #196 (European region: South, country: Italy, isolate source: Human, ribotype: 087) | 2 µg/mL | 16 µg/mL | 0.015 µg/mL | 0.06 µg/mL | 1 µg/mL | < 0.001 µg/mL | 4 µg/mL | 2 µg/mL | < 0.125 µg/mL |
| Clostridioides difficile PCR ribotype 087 isolate #377 (European region: West, country: Netherlands, isolate source: Animal, ribotype: 087) | 2 µg/mL | 16 µg/mL | 0.015 µg/mL | < 0.03 µg/mL | 1 µg/mL | < 0.001 µg/mL | 1 µg/mL | 4 µg/mL | < 0.125 µg/mL |
| Clostridioides difficile PCR ribotype 088 isolate #197 (European region: South, country: Spain, isolate source: Human, ribotype: 088) | 2 µg/mL | 2 µg/mL | 0.06 µg/mL | 0.06 µg/mL | 0.5 µg/mL | < 0.001 µg/mL | 8 µg/mL | 4 µg/mL | 0.25 µg/mL |
| Clostridioides difficile PCR ribotype 090 isolate #199 (European region: South, country: Italy, isolate source: Human, ribotype: 090) | 2 µg/mL | 8 µg/mL | 0.03 µg/mL | 0.06 µg/mL | 1 µg/mL | 0.06 µg/mL | 1 µg/mL | 2 µg/mL | < 0.125 µg/mL |
| Clostridioides difficile PCR ribotype 101 isolate #200 (European region: North, country: UK, isolate source: Human, ribotype: 101) | 2 µg/mL | 8 µg/mL | 0.06 µg/mL | < 0.03 µg/mL | 0.5 µg/mL | < 0.001 µg/mL | 2 µg/mL | 2 µg/mL | 0.25 µg/mL |
| Clostridioides difficile PCR ribotype 103 isolate #201 (European region: North, country: UK, isolate source: Human, ribotype: 103) | 2 µg/mL | 1 µg/mL | 0.03 µg/mL | < 0.03 µg/mL | 0.5 µg/mL | < 0.001 µg/mL | 4 µg/mL | 2 µg/mL | < 0.125 µg/mL |
| Clostridioides difficile PCR ribotype 106 isolate #202 (European region: West, country: France, isolate source: Human, ribotype: 106) | 1 µg/mL | 8 µg/mL | 0.015 µg/mL | < 0.03 µg/mL | 0.5 µg/mL | < 0.001 µg/mL | 4 µg/mL | 4 µg/mL | 0.25 µg/mL |
| Clostridioides difficile PCR ribotype 106 isolate #203 (European region: West, country: France, isolate source: Human, ribotype: 106) | 2 µg/mL | 32 µg/mL | 0.06 µg/mL | < 0.03 µg/mL | 0.5 µg/mL | < 0.001 µg/mL | 2 µg/mL | 4 µg/mL | < 0.125 µg/mL |
| Clostridioides difficile PCR ribotype 106 isolate #204 (European region: South, country: Spain, isolate source: Human, ribotype: 106) | 2 µg/mL | 1 µg/mL | 0.06 µg/mL | 0.06 µg/mL | 0.5 µg/mL | < 0.001 µg/mL | 4 µg/mL | 2 µg/mL | 0.25 µg/mL |
| Clostridioides difficile PCR ribotype 106 isolate #205 (European region: South, country: Spain, isolate source: Human, ribotype: 106) | 2 µg/mL | 8 µg/mL | 0.06 µg/mL | 0.06 µg/mL | 0.5 µg/mL | < 0.001 µg/mL | 4 µg/mL | 4 µg/mL | 0.25 µg/mL |
| Clostridioides difficile PCR ribotype 106 isolate #206 (European region: South, country: Spain, isolate source: Human, ribotype: 106) | 2 µg/mL | 8 µg/mL | 0.06 µg/mL | 0.06 µg/mL | 1 µg/mL | < 0.001 µg/mL | 4 µg/mL | 4 µg/mL | 0.25 µg/mL |
| Clostridioides difficile PCR ribotype 106 isolate #207 (European region: South, country: Spain, isolate source: Human, ribotype: 106) | 2 µg/mL | 2 µg/mL | 0.06 µg/mL | 0.06 µg/mL | 1 µg/mL | < 0.001 µg/mL | 4 µg/mL | 4 µg/mL | 0.25 µg/mL |
| Clostridioides difficile PCR ribotype 106 isolate #208 (European region: South, country: Spain, isolate source: Human, ribotype: 106) | 2 µg/mL | 8 µg/mL | 0.06 µg/mL | < 0.03 µg/mL | 1 µg/mL | < 0.001 µg/mL | 4 µg/mL | 4 µg/mL | 0.25 µg/mL |
| Clostridioides difficile PCR ribotype 106 isolate #209 (European region: South, country: Spain, isolate source: Human, ribotype: 106) | 2 µg/mL | 8 µg/mL | 0.03 µg/mL | 0.06 µg/mL | 0.5 µg/mL | < 0.001 µg/mL | 4 µg/mL | 4 µg/mL | < 0.125 µg/mL |
| Clostridioides difficile PCR ribotype 115 isolate #210 (European region: North, country: UK, isolate source: Human, ribotype: 115) | 1 µg/mL | 4 µg/mL | 0.125 µg/mL | < 0.03 µg/mL | 0.5 µg/mL | < 0.001 µg/mL | 2 µg/mL | 4 µg/mL | < 0.125 µg/mL |
| Clostridioides difficile PCR ribotype 115 isolate #211 (European region: East, country: Romania, isolate source: Human, ribotype: 115) | 2 µg/mL | 0.5 µg/mL | 0.015 µg/mL | < 0.03 µg/mL | 0.5 µg/mL | 0.008 µg/mL | 4 µg/mL | 2 µg/mL | 0.25 µg/mL |
| Clostridioides difficile PCR ribotype 126 isolate #212 (European region: South, country: Spain, isolate source: Human, ribotype: 126) | 2 µg/mL | 1 µg/mL | 0.06 µg/mL | 0.06 µg/mL | 1 µg/mL | < 0.001 µg/mL | 4 µg/mL | 2 µg/mL | 0.25 µg/mL |
| Clostridioides difficile PCR ribotype 126 isolate #213 (European region: South, country: Italy, isolate source: Human, ribotype: 126) | 2 µg/mL | > 128 µg/mL | 0.03 µg/mL | < 0.03 µg/mL | 1 µg/mL | < 0.001 µg/mL | 8 µg/mL | 2 µg/mL | 0.25 µg/mL |
| Clostridioides difficile PCR ribotype 126 isolate #214 (European region: South, country: Italy, isolate source: Human, ribotype: 126) | 8 µg/mL | > 128 µg/mL | 0.03 µg/mL | < 0.03 µg/mL | 0.5 µg/mL | < 0.001 µg/mL | 2 µg/mL | 2 µg/mL | < 0.125 µg/mL |
| Clostridioides difficile PCR ribotype 126 isolate #378 (European region: South, country: Spain, isolate source: Animal, ribotype: 126) | 2 µg/mL | 8 µg/mL | 0.06 µg/mL | < 0.03 µg/mL | 1 µg/mL | < 0.001 µg/mL | 4 µg/mL | 2 µg/mL | 0.25 µg/mL |
| Clostridioides difficile PCR ribotype 126 isolate #379 (European region: West, country: France, isolate source: Animal, ribotype: 126) | 2 µg/mL | 16 µg/mL | 0.03 µg/mL | < 0.03 µg/mL | 0.5 µg/mL | < 0.001 µg/mL | 2 µg/mL | 2 µg/mL | 0.25 µg/mL |
| Clostridioides difficile PCR ribotype 126 isolate #380 (European region: West, country: France, isolate source: Animal, ribotype: 126) | 16 µg/mL | 64 µg/mL | 0.03 µg/mL | < 0.03 µg/mL | 1 µg/mL | < 0.001 µg/mL | 2 µg/mL | 4 µg/mL | < 0.125 µg/mL |
| Clostridioides difficile PCR ribotype 126 isolate #381 (European region: West, country: France, isolate source: Animal, ribotype: 126) | 2 µg/mL | 2 µg/mL | 0.015 µg/mL | < 0.03 µg/mL | 1 µg/mL | < 0.001 µg/mL | 2 µg/mL | 4 µg/mL | < 0.125 µg/mL |
| Clostridioides difficile PCR ribotype 126 isolate #382 (European region: West, country: France, isolate source: Animal, ribotype: 126) | 2 µg/mL | 2 µg/mL | 0.03 µg/mL | < 0.03 µg/mL | 1 µg/mL | < 0.001 µg/mL | 2 µg/mL | 2 µg/mL | 0.25 µg/mL |
| Clostridioides difficile PCR ribotype 126 isolate #383 (European region: West, country: France, isolate source: Animal, ribotype: 126) | 2 µg/mL | 8 µg/mL | 0.03 µg/mL | < 0.03 µg/mL | 1 µg/mL | < 0.001 µg/mL | 2 µg/mL | 4 µg/mL | < 0.125 µg/mL |

Reformatted: results already given.
Test System | minimum inhibitory concentration (linezolid) | minimum inhibitory concentration (clindamycin) | minimum inhibitory concentration (fidaxomicin) | minimum inhibitory concentration (tigecycline) | minimum inhibitory concentration (vancomycin) | minimum inhibitory concentration (rifampicin) | minimum inhibitory concentration (imipenem) | minimum inhibitory concentration (meropenem) | minimum inhibitory concentration (metronidazole)
Clostridioides difficile PCR ribotype 126 isolate #213 (European region: South, country: Italy, isolate source: Human, ribotype: 126) | 2 µg/mL | > 128 µg/mL | 0.03 µg/mL | < 0.03 µg/mL | 1 µg/mL | < 0.001 µg/mL | 8 µg/mL | 2 µg/mL | 0.25 µg/mL
Clostridioides difficile PCR ribotype 126 isolate #214 (European region: South, country: Italy, isolate source: Human, ribotype: 126) | 8 µg/mL | > 128 µg/mL | 0.03 µg/mL | < 0.03 µg/mL | 0.5 µg/mL | < 0.001 µg/mL | 2 µg/mL | 2 µg/mL | < 0.125 µg/mL
Clostridioides difficile PCR ribotype 126 isolate #378 (European region: South, country: Spain, isolate source: Animal, ribotype: 126) | 2 µg/mL | 8 µg/mL | 0.06 µg/mL | < 0.03 µg/mL | 1 µg/mL | < 0.001 µg/mL | 4 µg/mL | 2 µg/mL | 0.25 µg/mL
Clostridioides difficile PCR ribotype 126 isolate #379 (European region: West, country: France, isolate source: Animal, ribotype: 126) | 2 µg/mL | 16 µg/mL | 0.03 µg/mL | < 0.03 µg/mL | 0.5 µg/mL | < 0.001 µg/mL | 2 µg/mL | 2 µg/mL | 0.25 µg/mL

— the supplement of paper PMC11264405
